In patent US20120101024A1, “Methods and Compositions for Differentiating Embryonic Stem Cells” (REGENERATIVE RESEARCH FOUNDATION, priority 2010, published 2012):
These are yes or no findings as the source states them, for the method shown. Binding seen in cells or lysates may run through a third protein. Some results given as binding are weak or reduced against the parent protein; the word gives no strength. For some assays here: Where a sequence is shown, tags or fusion partners need not be part of it.

Protein sequences, listed by entry. Tags and fused reporters are not part of them. Lines headed by an entry give the natural chain unless they say otherwise; changes in a name come on top.
UniProt P13385: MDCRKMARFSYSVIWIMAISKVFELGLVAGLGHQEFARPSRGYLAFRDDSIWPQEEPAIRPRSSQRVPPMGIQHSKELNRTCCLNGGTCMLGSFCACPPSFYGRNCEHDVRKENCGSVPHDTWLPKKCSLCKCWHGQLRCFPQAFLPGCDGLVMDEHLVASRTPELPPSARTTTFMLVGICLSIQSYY

Key:
CRIPTO (human) [1] = biological target: CRIPTO (human) (UniProt P13385); assay: co-immunoprecipitation from the membrane fraction of hESCs treated 1 hour with NPTX1-His conditioned media; Western blot
CRIPTO (human) [2] = biological target: CRIPTO (human) (UniProt P13385); assay: co-immunoprecipitation with anti-CRIPTO antibody from culture media and cell membrane lysate; Western blot with anti-NPTX1

Row | binding (CRIPTO (human) [2]) | Binder | binding (CRIPTO (human) [1])
1 | – | NPTX1-His protein (ligand) HHHHHHQDFGPTRFICTSVPVDADMCAASVAAGGAEELRSSVLQLRETVLQQKETILSQKETIRELTAKLGRCESQSTLDPGAGEARAGGGRKQPGSGKNTMGDLSRTPAAETLSQLGQTLQSLKTRLENLEQYSRLNSSSQTNSLKDLLQSKIDELERQVLSRVNTLEEGKGGPRNDTEERVKIETALTSLHQRISELEKGQKDNRPGDKFQLTFPLRTNYMYAKVKKSLPEMYAFTVCMWLKSSATPGVGTPFSYAVPGQANELVLIEWGNNPMEILINDKVAKLPFVINDGKWHHICVTWTTRDGVWEAYQDGTQGGSGENLAPYHPIKPQGVLVLGQEQDTLGGGFDATQAFVGELAHFNIWDRKLTPGEVYNLATCSTKALSGNVIAWAESHIEIYGGATKWTFEACRQIN | binds
2 | binds | NPTX1 (ligand) QDFGPTRFICTSVPVDADMCAASVAAGGAEELRSSVLQLRETVLQQKETILSQKETIRELTAKLGRCESQSTLDPGAGEARAGGGRKQPGSGKNTMGDLSRTPAAETLSQLGQTLQSLKTRLENLEQYSRLNSSSQTNSLKDLLQSKIDELERQVLSRVNTLEEGKGGPRNDTEERVKIETALTSLHQRISELEKGQKDNRPGDKFQLTFPLRTNYMYAKVKKSLPEMYAFTVCMWLKSSATPGVGTPFSYAVPGQANELVLIEWGNNPMEILINDKVAKLPFVINDGKWHHICVTWTTRDGVWEAYQDGTQGGSGENLAPYHPIKPQGVLVLGQEQDTLGGGFDATQAFVGELAHFNIWDRKLTPGEVYNLATCSTKALSGNVIAWAESHIEIYGGATKWTFEACRQIN | –
